From paper PMC12040169 (PLOS Biology, 2025)
Some of the results follow.

The compounds below were run on T1, CTL2-GFP (C. trachomatis L2/434/Bu, GFP-expressing). Conditions: bulk GFP, single well; 28.5 h, 10 µM; inhibitor.
T1 construct: L2/434/Bu, GFP-expressing
Set-up: species or system HeLa; Intracellular C. trachomatis growth in HeLa cells, bulk GFP fluorescence relative to DMSO

| SMILES | % of control remaining [%] |
| --- | --- |
| CCCC/C=C/c1cn2ccnc2c(N2CCOCC2)n1 [CBK038031] | 150.279 |
| CN1CCC2(CCC1=O)CC(N)c1ccccc1O2 (stereo not drawn) [CBK284456] | 74.8518 |
| COc1ccc(Cl)cc1NC(=O)CN(c1ccccc1)S(=O)(=O)c1ccc(Cl)cc1 [CBK265261] | 116.836 |
| O=S1(=O)CCN(CC2COc3ccccc3O2)CC1 (stereo not drawn) [CBK074789] | 138.814 |
| COc1ccccc1N1CCN(c2ccc([N+](=O)[O-])cc2C(=O)O)CC1 [CBK286692] | 127.801 |
| CC(C)c1n[nH]c(=S)n1C1CCc2ccccc21 (stereo not drawn) [CBK288374] | 119.484 |
| CS(=O)(=O)Nc1ccc(C(=O)NCCN2CCOCC2)cc1 [CBK269781] | 142.47 |
| CCOc1ncccc1C(=O)NCc1ccc(COCC(F)(F)F)cc1 [CBK304526] | 97.7191 |
| COc1ccc(NC(=O)c2ccccc2CCc2ccccc2)c([N+](=O)[O-])c1 [CBK268632] | 109.737 |
| Cn1cc(CCNC(=O)N(Cc2ccccn2)CC2CCCO2)cn1 (stereo not drawn) [CBK306973] | 162.727 |
| COc1ccc(NC(=O)CC2SC(=N)NC2=O)c([N+](=O)[O-])c1 (stereo not drawn) [CBK265334] | 131.996 |
| O=C(c1nc2ccccc2s1)C1CCN(C(=O)c2ccco2)CC1 [CBK284234] | 122.277 |
| CN(C)C(=O)c1cc(Br)cnc1NCc1ccc2c(c1)OCO2 [CBK076293] | 76.4281 |
| CCCCNc1cc(N(C)Cc2cnn(C)c2)nc(N)n1 [CBK304167] | 130.386 |
| CCOC(=O)[C@@]12CC=CCN(C(=O)c3ccco3)[C@@H]1CCC2 [CBK284574] | 108.593 |
| COc1cc(CNS(=O)(=O)c2cc3c(NCCN(C)C)nccc3s2)cc(OC)c1OC [CBK038246C] | 120.367 |
| CCN(CC)S(=O)(=O)c1ccc(CNC(=O)Cc2ccc(Cl)cc2)cc1 [CBK306188] | 91.5819 |
| COCC(C)NC(=O)c1nn(-c2nc3ccccc3s2)c2ccccc12 (stereo not drawn) [CBK048488] | 146.15 |
| CCCc1n[nH]c(C2CN(CCn3cccn3)CCO2)n1 (stereo not drawn) [CBK304842] | 96.9415 |
| Cc1ccccc1NC(=O)c1cnc2n(c1=O)CCS2 [CBK287374] | 113.95 |

| SMILES | % of control remaining [%] |
| --- | --- |
| Cc1ccccc1OCc1nnc(SCC(=O)c2ccc3c(c2)Cc2ccccc2-3)n1C [CBK265829] | 159.931 |
| CCc1ccc(CN(C)C(=O)COC(=O)c2cc(-c3ccccc3)nc3onc(C)c23)cc1 [CBK295334] | 109.127 |
| COc1cccc(CC(=O)N2CCC(Cc3ccccc3-c3cccs3)(C(N)=O)CC2)c1 [CBK285908] | 108.971 |
| Cc1ccn(-c2ccc(N3CCNCC3)nn2)n1 [CBK304680] | 143.125 |
| CCc1cccc(C)c1NC(=O)CN(c1ccc(Br)c(C)c1)S(C)(=O)=O [CBK267935] | 133.598 |
| O=C(Cc1ccccc1)N1CCC(c2nc3ccccc3s2)CC1 [CBK070145] | 95.4231 |
| Cc1cccc(Oc2ccccc2NS(=O)(=O)c2ccc3c(c2)N(CC(=O)O)C(=O)CO3)c1 [CBK295287] | 130.099 |
| C[C@H]1CN2C[C@H](O)CC2CN1Cc1ccc(Br)s1 (stereo partly drawn) [CBK285439] | 107.687 |
| O=C1c2ccccc2C(=O)N1CCN1CCN(Cc2ccccc2)CC1 [CBK074813] | 102.049 |
| COc1ccc(OC)c(-n2c(=O)[nH]c3ccccc3c2=O)c1 [CBK287825] | 94.1073 |
| CC(C)Nc1cc(OCCCc2ccncc2)ncn1 [CBK115886] | 88.9852 |
| O=C(O)c1ccc(CN2C(=O)COc3ccccc32)o1 [CBK270276] | 136.526 |
| Cn1cc(CN[C@@H]2CCC(=O)N[C@H]2c2cc(F)cc(F)c2)cn1 [CBK282913] | 102.022 |
| CC(=O)Nc1ccc(NC2SC(=O)N(c3ccccc3)C2=O)cc1 (stereo not drawn) [CBK085110] | 126.144 |
| CCc1c(C)nc(SC(C(=O)O)c2ccccc2)c(C#N)c1C (stereo not drawn) [CBK270174] | 113.98 |
| CC(=O)Nc1cccc(-c2cncc(NCCc3ccccn3)n2)c1 [CBK065359] | 120.03 |
| CCc1nc(CN2CCCC(NCc3ccc(C(N)=O)cc3)C2)no1 (stereo not drawn) [CBK305373] | 129.72 |
| C(=N\N=C(/c1ccccc1)C12CN3CN(CN(C3)C1)C2)/c1ccc2c(c1)OCO2 [CBK261816] | 105.033 |
| CCOC(=O)N1CCN(CCC(=O)Nc2ccc3c(c2)CCC3)CC1 [CBK264220] | 113.924 |

Ordered by length of the SMILES (rising): some entries from above

| SMILES | % of control remaining [%] |
| --- | --- |
| CCc1cccc(C)c1NC(=O)CN(c1ccc(Br)c(C)c1)S(C)(=O)=O [CBK267935] | 133.598 |
| C(=N\N=C(/c1ccccc1)C12CN3CN(CN(C3)C1)C2)/c1ccc2c(c1)OCO2 [CBK261816] | 105.033 |
| Cc1cccc(Oc2ccccc2NS(=O)(=O)c2ccc3c(c2)N(CC(=O)O)C(=O)CO3)c1 [CBK295287] | 130.099 |
